This test concerns the target T1, Dbf4, Gal4 DNA binding domain fusion (GAL4-BD-DBF4) (budding yeast) (UniProt P32325).
T1 sequence: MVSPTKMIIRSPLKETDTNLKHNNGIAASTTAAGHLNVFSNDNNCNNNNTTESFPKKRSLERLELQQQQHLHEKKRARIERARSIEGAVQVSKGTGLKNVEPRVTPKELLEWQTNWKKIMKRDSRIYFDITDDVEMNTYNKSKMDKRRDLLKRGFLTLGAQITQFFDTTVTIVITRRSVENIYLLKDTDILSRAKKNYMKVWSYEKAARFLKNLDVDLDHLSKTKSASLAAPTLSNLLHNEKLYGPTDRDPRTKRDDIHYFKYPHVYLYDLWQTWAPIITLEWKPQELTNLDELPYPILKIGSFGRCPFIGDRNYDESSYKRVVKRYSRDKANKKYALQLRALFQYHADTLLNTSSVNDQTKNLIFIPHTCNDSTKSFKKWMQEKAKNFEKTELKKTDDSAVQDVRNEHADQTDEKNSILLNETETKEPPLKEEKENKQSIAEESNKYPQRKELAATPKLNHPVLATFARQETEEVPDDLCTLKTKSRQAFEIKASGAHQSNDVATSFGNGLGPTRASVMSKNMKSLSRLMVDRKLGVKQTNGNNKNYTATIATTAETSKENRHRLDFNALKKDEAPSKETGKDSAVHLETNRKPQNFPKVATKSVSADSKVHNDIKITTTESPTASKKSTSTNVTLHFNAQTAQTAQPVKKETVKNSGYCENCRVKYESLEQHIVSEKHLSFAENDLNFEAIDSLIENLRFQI
The experiment in a line: two-hybrid; Gal4 DNA binding domain (BD) and Gal4 activation domain (AD) fusions; yeast grown at 30°C on SC-W-L or SC-W-L-H plates.

By UniProt entry, the sequences of proteins in these tests, tags left out. Residues count along the entry.
UniProt P29469, residues 1-299: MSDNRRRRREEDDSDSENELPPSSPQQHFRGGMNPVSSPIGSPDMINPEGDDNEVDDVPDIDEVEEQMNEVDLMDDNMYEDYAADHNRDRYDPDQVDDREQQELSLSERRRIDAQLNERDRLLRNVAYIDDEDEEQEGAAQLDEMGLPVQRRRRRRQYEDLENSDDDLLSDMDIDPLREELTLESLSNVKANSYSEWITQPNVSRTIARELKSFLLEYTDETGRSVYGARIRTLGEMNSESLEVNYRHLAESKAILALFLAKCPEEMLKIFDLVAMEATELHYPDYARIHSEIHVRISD

These are yes or no findings as the source states them, for the method shown. Some entries that bind do so weakly or less than the wild type. Tags and fused reporters may be left off the sequences shown.

Regarding “Mcm2 (1-299), Gal4 activation domain fusion (GAL4-AD-mcm2(1-299)) (from UniProt P29469 1-299) (domain or fragment)”, the binding result is “binds”.

Source of the values: article PMC4901202, “Sld3-MCM Interaction Facilitated by Dbf4-Dependent Kinase Defines an Essential Step in Eukaryotic DNA Replication Initiation” (Frontiers in Microbiology, 2016).
